Test results reported in US20170306047A1, “PHARMACEUTICAL COMPOSITION FOR CANCER PREVENTION AND TREATMENT, CONTAINING NDRG3 EXPRESSION OR ACTIVITY INHIBITOR AS ACTIVE INGREDIENT, OR NDRG3 PROTEIN-SPECIFIC ANTIBODY AND USE THEREOF” (KOREA RESEARCH INSTITUTE OF BIOSCIENCE AND BIOTECHNOLOGY, priority 2014, published 2017).
No constants are given. Whether binding was seen depends on the method and setting. For part of these data: In cells and extracts the contact can be indirect. Some results given as binding are weak or reduced against the parent protein; the word gives no strength. Values belong to the substance of their own block, whether it stands above or below them.

Sequences of proteins named here, by UniProt entry; tags and fusion partners are left off. A change or cut given only in a name is not applied to a line headed by its entry.
UniProt Q9GZT9: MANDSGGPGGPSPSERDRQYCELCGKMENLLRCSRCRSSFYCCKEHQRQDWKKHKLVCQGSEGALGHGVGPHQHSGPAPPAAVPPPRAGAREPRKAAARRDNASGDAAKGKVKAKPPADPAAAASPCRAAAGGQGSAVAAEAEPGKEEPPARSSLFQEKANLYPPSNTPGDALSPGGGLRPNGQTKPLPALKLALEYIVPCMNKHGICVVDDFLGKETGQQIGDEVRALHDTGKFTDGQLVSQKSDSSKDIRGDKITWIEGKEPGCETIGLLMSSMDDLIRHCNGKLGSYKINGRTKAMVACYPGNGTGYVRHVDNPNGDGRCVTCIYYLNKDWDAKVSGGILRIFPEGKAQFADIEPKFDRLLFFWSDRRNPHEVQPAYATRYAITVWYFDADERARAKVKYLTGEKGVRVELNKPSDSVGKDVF
UniProt Q9UGV2: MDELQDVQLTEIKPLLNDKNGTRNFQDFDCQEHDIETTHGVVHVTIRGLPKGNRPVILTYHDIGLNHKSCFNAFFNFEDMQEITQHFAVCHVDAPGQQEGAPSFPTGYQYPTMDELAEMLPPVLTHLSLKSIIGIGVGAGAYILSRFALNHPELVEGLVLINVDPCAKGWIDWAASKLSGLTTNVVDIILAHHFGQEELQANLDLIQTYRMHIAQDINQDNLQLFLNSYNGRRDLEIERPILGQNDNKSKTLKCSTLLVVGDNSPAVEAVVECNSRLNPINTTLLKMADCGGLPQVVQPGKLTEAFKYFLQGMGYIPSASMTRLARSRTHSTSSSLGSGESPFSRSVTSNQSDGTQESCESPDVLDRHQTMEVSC

Tests used:
[1] = molecular target: Flag-tagged PHD2 (UniProt Q9GZT9); assay: co-immunoprecipitation with anti-Myc gel from HEK293T cells, anti-Flag Western blot; filing ranks PHD2-binding affinities V296D>Q97E>R47D≈N66D
[2] = molecular target: recombinant GST-NDRG3 protein (human) (UniProt Q9UGV2); assay: in vitro pull-down: 10 µg His-PHD2 and 10 µg GST-NDRG3 on Ni-NTA agarose, anti-NDRG3 Western blot
[3] = molecular target: recombinant GST-NDRG3 protein (human) (UniProt Q9UGV2); assay: in vitro Ni-NTA pull-down of recombinant proteins (FIG. 4A legend)
[4] = molecular target: Flag-tagged PHD2 (UniProt Q9GZT9); assay: co-immunoprecipitation with anti-Myc gel from HEK293T cells (normoxia, MG132), anti-Flag Western blot
[5] = molecular target: Flag-tagged c-Raf (UniProt P04049); assay: anti-FLAG immunoprecipitation from HeLa cells (FIG. 19D legend)
[6] = molecular target: Flag-tagged c-Raf (UniProt P04049); assay: anti-FLAG immunoprecipitation from Flag-c-Raf-overexpressing HeLa cells (1% O2, 24 h), anti-NDRG3 Western blot
[7] = molecular target: recombinant c-Raf-His protein (UniProt P04049); assay: His pull-down of recombinant proteins (FIG. 19D legend)
[8] = molecular target: recombinant c-Raf-His protein (UniProt P04049); assay: His pull-down of c-Raf-His and NDRG3-GST on Ni-NTA agarose, anti-NDRG3 Western blot

Substance: Myc-tagged NDRG3 (V296D) variant (from UniProt Q9UGV2 1-375)
binding [1]: binds

Substance: recombinant His-PHD2 protein (from UniProt Q9GZT9 1-426) (enzyme)
binding [2]: binds | binding [3]: binds

Substance: Myc-tagged NDRG3 (from UniProt Q9UGV2 1-375)
binding [4]: binds

Further lines, results first:

binding [5]: binds | binding [6]: binds
Substance: N-myc downstream-regulated gene 3 (NDRG3) protein (from UniProt Q9UGV2 1-375)

binding [1]: binds
Substance: Myc-tagged NDRG3 (Q97E) variant (from UniProt Q9UGV2 1-375)

binding [7]: binds | binding [8]: binds
Substance: recombinant GST-NDRG3 protein (from UniProt Q9UGV2 1-375)
